In PubChem BioAssay AID2685 (National Center for Advancing Translational Sciences (NCATS), 2010):
Some of the results follow. The main result of the screen is listed elsewhere. These columns were measured beside it and carry no call. Most of these compounds were active or inconclusive in the main read-out, so they are no random draw. Potencies come from curve fits of mixed quality, noted in brackets.

Experiment: qHTS Assay for Lipid Storage Modulators in Drosophila S3 Cells;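 on cell number change: cells counted by Cell Tracker Red CMTPX staining in the red channel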
Settings: BODIPY lipid droplet fluorescence, 18-24 h; for cell number change: measured here: cell count max response, cells fed with added oleic acid
Summary of the method: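 Drosophila S3 cells loaded with oleic acid (400 uM, as added) and compounds at several concentrations; lipid droplets imaged by 488-nm laser-scanning cytometry, 500–530 nm intensity and object ratio to cell channel. Percent activity normalized to 20 uM Triacsin C.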

[1] = measured here: cell number channel AC50, cells fed with added oleic acid
[2] = measured here: lipid fluorescence (Fed channel) AC50, cells fed with added oleic acid

SMILES | cell number change [%] | AC50 [1] | AC50 [2]
C(=N\Nc1nc2ccccc2[nH]1)/c1cccc2nccnc12 | 39.4 | 29.1 µM [rising, single point] | 
Cc1ccc(NS(=O)(=O)c2cc(C(=O)N3CCOCC3)ccc2C)cc1 | -39.8 | 8.2 µM [falling, partial curve] | 29.1 µM [falling, single point]
Cc1cc(=O)[nH]n(CCO)c1=O | 9.49 |  | 
CCN(C(=O)COC(=O)c1ccc2ccccc2c1)c1c(N)n(Cc2ccccc2)c(=O)[nH]c1=O | -37 | 29.1 µM [falling, single point] | 29.1 µM [falling, single point]
O=C1c2cccnc2C(=O)N1Cc1ccc(S(=O)(=O)NCc2ccco2)cc1 | -0.917 |  | 
CCCN1C(=O)c2ccccc2NC1c1ccc(OC)cc1OC (configuration not stated) | -4.82 |  | 7.31 µM [rising, partial curve]
CC(=O)Nc1ccc(NC(=O)C2CCCN(S(=O)(=O)c3ccc(Cl)cc3)C2)cc1 (configuration not stated) | 47.4 | 29.1 µM [rising, single point] | 0.58 µM [rising, single point]
CC(C)(C)C1CCc2c(sc(NC(=O)C3CC=CCC3C(=O)O)c2C#N)C1 (configuration not stated) | -1.1 |  | 4.11 µM [rising, partial curve]
NC(=O)Nc1ccc(C(=O)OCC(=O)Nc2cccc(S(=O)(=O)NC3=NCCC3)c2)cc1 | -6.1 |  | 
CC(C)(C)c1csc(NC(=O)c2cccnc2)n1 | 12.6 |  | 
CCNC(=O)CN1c2cccc3cccc(c23)S1(=O)=O | -8.62 |  | 
CCCNC(=O)N(CCOC)CC1CCCN(C2Cc3ccccc3C2)C1 (configuration not stated) | 3.28 |  | 0.58 µM [rising, single point]
CCCS(=O)(=O)N1CCN(C(=O)COc2ccccc2)CC1 |  | 2.91 µM [rising, single point] | 
CNc1ccc(C(O)(C(F)(F)F)C(F)(F)F)cc1C(O)(C(F)(F)F)C(F)(F)F | -36.2 | 8.2 µM [falling, partial curve, poor fit] | 0.206 µM [falling, full curve]
COc1ccc(Cl)c2sc(NC(=O)C3=COCCO3)nc12 | 52.2 | 18.4 µM [rising, single point] | 
CC(C)N(C(=O)CSc1n[nH]c(=O)n1CCc1ccccc1)C(C)C | -6.67 |  | 
O=C(c1cccc(-c2ccc(O)cc2)c1)N1CCOCC1 | -44.9 | 20.6 µM [falling, partial curve] | 0.231 µM [falling, full curve]
OCCN1CCN(C(=S)c2ccc(Cl)cc2)CC1 | -115 | 25.9 µM [falling, partial curve] | 20.6 µM [falling, partial curve]
COc1cc(NC(=O)c2cccc([N+](=O)[O-])c2C)ccc1NC(=O)c1ccco1 | 2.59 |  | 8.2 µM [rising, partial curve]
Clc1ccc(Cn2cccn2)cn1 | 1.57 |  | 2.91 µM [falling, partial curve, poor fit]

SMILES | cell number change [%] | AC50 [1] | AC50 [2]
N#CC1=C(N)Oc2nc(-c3ccccc3)[nH]c2C1c1cccnc1 (configuration not stated) | 2.33 |  | 0.517 µM [rising, partial curve, poor fit]
O/N=C\c1cccn1-c1ccc(Br)cc1 | -11.3 |  | 0.58 µM [falling, single point]
O=C(CCC(=O)OCC(=O)c1cccc([N+](=O)[O-])c1)Nc1ccccc1Cl | -10.3 | 0.13 µM [falling, full curve, poor fit] | 1.46 µM [falling, full curve]
CCc1c(C)c2ccc(OCC(=O)NCC3CCC(C(=O)O)CC3)c(C)c2oc1=O (configuration not stated) | 41.7 | 29.1 µM [rising, single point] | 4.61 µM [falling, single point]
CCCCC1CCC(C(=O)OCC(=O)Nc2ccc(S(N)(=O)=O)cc2)CC1 (configuration not stated) |  | 1.16 µM [falling, full curve] | 1.46 µM [falling, partial curve]
COc1ccccc1-c1cn[nH]c1-c1ccc(OCc2ccccc2)cc1O | -58.6 | 16.4 µM [falling, single point] | 18.4 µM [falling, single point]
Cc1ccc(NC(=O)N2CCN(c3ncccc3C(F)(F)F)CC2)cc1 | 33.1 | 2.59 µM [rising, full curve] | 2.91 µM [rising, full curve, poor fit]
COC(=O)CN1C(=O)[C@H]2[C@@H](c3ccc(C)o3)N3C(=O)CN(CC4CC4)C(=O)[C@@]3(Cc3ccccc3)[C@H]2C1=O | 24.9 |  | 
CC(Sc1nc(N)cc(=O)[nH]1)C(=O)NCC(=O)Nc1ccc(F)c(F)c1F (configuration not stated) | 2.85 |  | 
c1ccc(-c2nnc(SCc3nc4ccccc4[nH]3)n2Cc2ccco2)cc1 | 9.12 |  | 0.164 µM [rising, full curve]
CS(=O)(=O)N(Cc1ccc(C(=O)Nc2ccccc2Sc2ccccc2)cc1)c1ccccc1 | -20.7 |  | 16.4 µM [falling, single point]
Cc1cc(/C([O-])=C(/C(=S)Nc2ccccc2)[n+]2ccccc2)c(C)n1-c1ccccc1 | 52.3 | 29.1 µM [rising, single point] | 6.51 µM [falling, single point]
COc1ccc(C(CNC(=O)c2oc3ccc(C)cc3c2C)N2CCCCC2)cc1 (configuration not stated) | -1.79 |  | 
COc1ccc(NC(=O)CN(C)C(=O)CNC(=O)c2sc3ccccc3c2Cl)cc1 | -32.5 | 29.1 µM [falling, single point] | 0.731 µM [rising, partial curve]
O=C(c1cc2c(s1)-c1ccccc1OC2)N1CCCC1 | -32.2 | 32.6 µM [falling, single point] | 
CCN(CCO)c1ccc(-n2c(N)c(C(=O)OC)c3nc4ccccc4nc32)cc1 | -11.5 |  | 29.1 µM [rising, single point]
COCCCn1c(SCCc2ccccc2)nc2cc(OC)c(OC)cc2c1=N | -72.9 | 16.4 µM [falling, single point] | 23.1 µM [falling, single point]
COc1ccc(CNC(=O)CCCn2nc([N+](=O)[O-])cc2C)cc1 |  |  | 0.651 µM [falling, single point]
Cc1ccc(-c2nnc(SCC(=O)NC3CCCC3)n2C)cc1 | 7.89 |  | 
CC(=O)Oc1ccc(C2(C)CC(C)(C)Oc3cc(OC(C)=O)ccc32)c(OC(C)=O)c1 (configuration not stated) | -37.3 | 14.6 µM [falling, single point] | 6.51 µM [falling, single point]

Three structures out of the list, ordered by length of the SMILES, rising.
SMILES | cell number change [%] | AC50 [1] | AC50 [2]
COCCCn1c(SCCc2ccccc2)nc2cc(OC)c(OC)cc2c1=N | -72.9 | 16.4 µM [falling, single point] | 23.1 µM [falling, single point]
Cc1ccc(NC(=O)N2CCN(c3ncccc3C(F)(F)F)CC2)cc1 | 33.1 | 2.59 µM [rising, full curve] | 2.91 µM [rising, full curve, poor fit]
CCN(CCO)c1ccc(-n2c(N)c(C(=O)OC)c3nc4ccccc4nc32)cc1 | -11.5 |  | 29.1 µM [rising, single point]

Following part.

SMILES | cell number change [%] | AC50 [1] | AC50 [2]
O=C(Cn1cnc2c(cnn2-c2ccc(Cl)cc2)c1=O)NC1CCCCC1 |  | 7.31 µM [falling, single point] | 
CC1(c2ccccc2)CC(C)(C)N(C(=O)CSc2nnc(N)s2)c2ccccc21 (configuration not stated) | 2.65 |  | 
COC(=O)c1ccc(NC(=O)CCc2nnc3ccc(NCc4ccco4)nn23)cc1 | -23.5 |  | 18.4 µM [falling, partial curve]
CCCCNS(=O)(=O)c1ccc(NC(=O)C(Sc2ccccc2)c2ccccc2)cc1 (configuration not stated) | -8.31 |  | 1.46 µM [rising, full curve, poor fit]
CCOc1ccc(NC(=O)CN2CCN(C(=O)C3CCCO3)CC2)cc1 (configuration not stated) | 8.09 |  | 32.6 µM [rising, single point]
Cc1cc(C(=O)COC(=O)c2ccc(O)cc2)c(C)n1CC(F)(F)F | -49.3 | 25.9 µM [falling, single point] | 32.6 µM [falling, partial curve, poor fit]
N#Cc1ccc(C(=O)Nc2ccn(-c3ccccc3)n2)cc1 | -4.15 |  | 1.64 µM [rising, single point]
CCOC(=O)Cc1csc(NC(NC(=O)OCC)(C(F)(F)F)C(F)(F)F)n1 | 35.2 | 6.51 µM [rising, partial curve] | 
Cc1cccc(NC(=O)Cc2ccc(-c3ccccc3)cc2)n1 | 1.39 |  | 35.5 µM [rising, single point]
CC12CCC(C(=O)Nc3ncc([N+](=O)[O-])s3)(OC1=O)C2(C)C (configuration not stated) | -20.1 |  | 
CCn1c(CSc2nnc(C)n2-c2ccccc2)nc2cc(S(=O)(=O)N(C)C)ccc21 | 0.331 |  | 3.26 µM [rising, single point]
NC(=O)C1CCN(C(=O)CNC(=O)c2ccc(Br)o2)CC1 | 17.2 |  | 0.58 µM [rising, full curve]
Cc1ccc(C(=O)OCC(=O)Nc2ccccc2Sc2ccccc2)cc1C | -3.06 |  | 
C#CNC(=O)C1(CC=C)CCNCC1 | -0.656 |  | 29.1 µM [falling, single point]
COc1ccc(C(=O)NNC(=O)CCn2nnc(-c3ccc(Cl)cc3)n2)cc1OC | 23.6 |  | 0.651 µM [rising, full curve, poor fit]
CN(C)CCC(=O)c1ccc2c(c1)OCO2 | -30.1 | 6.51 µM [falling, partial curve] | 16.4 µM [falling, partial curve]
COc1ccc(C2C=C(C34CC5CC(CC(C5)C3)C4)NC(=S)N2)cc1 (configuration not stated) | -15.7 | 0.164 µM [falling, full curve, poor fit] | 
CCN1CCN(CCC(=O)Nc2ccccc2OC)CC1 | -1.46 |  | 0.146 µM [falling, full curve, poor fit]
COc1cc(NC(=S)N2CCCCC2C)c(OC)cc1Cl (configuration not stated) | -35.5 |  | 
